Laboratory results published in the supplement of paper PMC12578635.
The list shows a part of the results. Rule as the data show it: active = 150% or more and inactive = the rest. Many values rest on one well or one pass, so single values are uncertain.

System: Staphylococcus aureus JE2-lux inside RAW 264.7 macrophages
Experiment: intracellular bacterial bioluminescence relative to DMSO vehicle; higher = higher intracellular bacterial metabolic activity
Details: 10 µM; treatment time 4 h; gentamicin 50 µg/ml

Intracellular bacterial bioluminescence, inactive:
CCN1CCN(CCNC(=O)c2cc3n(n2)CCCN(Cc2ccccc2)C3=O)CC1 115%
Cc1ccc2sc(NNC(=O)c3ccc(S(=O)(=O)N4CC(C)OC(C)C4)cc3)nc2c1C (stereo not given) 112%
COC(=O)c1ccsc1NC(=O)COc1ccc(Cl)cc1Cl 103%
CCOC(=O)c1c(-c2ccc(F)cc2)csc1NC(=O)CN1CCOCC1 97.8%
CCN(CC)S(=O)(=O)c1ccc(C(=O)Nc2ncnc3sccc23)cc1 85.5%
Cc1cccc(NC(=O)C(C)n2c(C)nc3onc(C)c3c2=O)c1 (stereo not given) 84.5%
CCOC(=O)c1c(NC(=O)CSc2nc(N)cc(=O)[nH]2)sc(C)c1C 132%
CCCc1cc(O)n2nc(-c3cccc(OC)c3)cc2n1 107%
O=C(c1cccn2c(-c3ccc(F)cc3)nnc12)N1CCC(Cc2ccccc2)CC1 110%
Cn1c(=O)[nH]c(=O)c2c1nc(Br)n2CCSc1nc2ccccc2s1 103%
COc1ccc(-c2noc(NCc3cccnc3)n2)cc1 111%
Cc1ccc(Cl)cc1NC(=O)Cn1c(=O)c2nnc(CCC(=O)NC(C)C)n2c2ccccc21 74.5%
Cc1ccc2cc3c(N)c(C(=O)N4CCN(c5ccccc5)CC4)sc3nc2c1 79.6%
O=C(CN1C(=O)COc2ccccc21)NNC(=O)Nc1ccccc1F 111%
Cc1cc(C)cc(NC(=O)CSc2nc3c(c(=O)[nH]2)CN(C(C)C)CC3)c1 102%
COc1ccccc1CNC(=O)CSc1nc(=O)[nH]cc1C 109%
Cc1ccc(NC(=O)Cn2c3c(sc2=O)C2c4cc([N+](=O)[O-])ccc4OCC2CS3)cc1 (stereo not given) 35.6%
O=C(Nc1ccc(Cl)cc1)N1CCc2nc(N3CCCCC3)ncc2C1 66.3%
O=C(Nc1ccc2ccccc2c1)c1cc2ccccc2oc1=O 112%
Fc1cccc(Cl)c1CSc1nnc2ccc(-c3ccccn3)nn12 116%
CCn1c(SCC(=O)NCc2ccc(F)cc2)nc2c(c1=O)SC(C)C2 (stereo not given) 79.6%
O=C(NCC(c1cccs1)S(=O)(=O)c1cccs1)Nc1ccc(Cl)cc1 (stereo not given) 90.6%
COc1ccc(C)c2s/c(=N\C(=O)C3COc4ccccc4O3)n(C)c12 (stereo not given) 75.1%
COc1ccc2nc(Nc3sc4c(c3C(N)=O)CCC(C)C4)sc2c1 (stereo not given) 72.8%
CSC1=C(C#N)C(c2ccncc2)C(C(=O)Nc2ccccc2)=C(C)N1 (stereo not given) 80.2%

Looked up by structure from above:
Intracellular bacterial bioluminescence, inactive:
COc1ccc(C)c2s/c(=N\C(=O)C3COc4ccccc4O3)n(C)c12 (stereo not given) 75.1%
CCOC(=O)c1c(-c2ccc(F)cc2)csc1NC(=O)CN1CCOCC1 97.8%
